Article PMC8018780, “Two peptides targeting endothelial receptors are internalized into murine brain endothelial cells” (PLoS ONE, 2021)
These are yes or no findings as the source states them, for the method shown. Binding calls can cover weak binding; strength is not graded here.

Key:
[1] = molecular target: low-density lipoprotein receptor-related protein 1 (LRP-1), human (human); assay: SPR; Biacore 3000, CM5 chip, receptors immobilised by EDC/NHS coupling (TfR 58 fmol/mm^2, LRP-1 0.025 fmol/mm^2); peptides injected at 0.25-4 uM, 5 uL/min, 25°C, 10 mM HEPES, 150 mM NaCl, 1.5 mM CaCl2, 1 mM EGTA, 0.005% Tween 20, pH 7.4; Langmuir 1:1 model, global fit; both purified
[2] = molecular target: recombinant mouse transferrin receptor (TfR) protein (mouse) (UniProt Q62351); assay: as above

Binder	binding [1]	binding [2]
FRCLVENRGDVPFVTRIR (C-terminal amide) [MTfp (peptide 1), peptide derived from melanotransferrin]	binds	binds
GYRPVHNIRGHWAPGK (C-terminal amide) [GYR (peptide 2)]	binds	–
